Patent US20180208902A1
Results are given in words; binding and its absence hold for the method and conditions named. Some entries that bind do so weakly or less than the wild type.

Chains of the proteins cited; added tags and fusions are not shown. Lines headed by an entry give the natural chain unless they say otherwise; changes in a name come on top. Residues count along the entry.
UniProt P09038, residues 135-288: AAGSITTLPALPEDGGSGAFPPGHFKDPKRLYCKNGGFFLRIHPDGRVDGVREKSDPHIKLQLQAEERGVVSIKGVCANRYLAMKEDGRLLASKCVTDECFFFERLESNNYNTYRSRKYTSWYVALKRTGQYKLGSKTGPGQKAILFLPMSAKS
UniProt P04004: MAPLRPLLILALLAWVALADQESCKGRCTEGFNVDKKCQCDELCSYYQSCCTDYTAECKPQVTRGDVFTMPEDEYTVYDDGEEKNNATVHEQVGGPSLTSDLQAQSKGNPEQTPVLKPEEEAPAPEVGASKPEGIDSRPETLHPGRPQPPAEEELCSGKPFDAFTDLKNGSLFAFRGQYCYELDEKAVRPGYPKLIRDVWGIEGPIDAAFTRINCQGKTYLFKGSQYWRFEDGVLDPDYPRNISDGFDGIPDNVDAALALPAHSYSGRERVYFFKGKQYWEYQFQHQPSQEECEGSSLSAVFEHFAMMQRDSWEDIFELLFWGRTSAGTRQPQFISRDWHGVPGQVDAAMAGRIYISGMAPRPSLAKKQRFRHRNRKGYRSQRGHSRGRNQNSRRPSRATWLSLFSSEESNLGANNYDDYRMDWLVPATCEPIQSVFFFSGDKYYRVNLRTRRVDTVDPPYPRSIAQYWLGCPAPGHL

How the values were obtained:
[1] = molecular target: basic fibroblast growth factor (bFGF) (UniProt P09038); experiment: bFGF ELISA of culture supernatants from bFGF-treated RCP-1 wells (bFGF not detected)
[2] = molecular target: basic fibroblast growth factor (bFGF) (UniProt P09038); experiment: Human iPS cell culture on bFGF-treated RCP-1 wells in bFGF-free medium (inferred from proliferation)
[3] = molecular target: basic fibroblast growth factor (bFGF) (UniProt P09038); experiment: RCP-1 mixed with Essential 8 medium (bFGF 100 ng/mL), 37 C for 24 h, remaining bFGF determined by ELISA
[4] = molecular target: basic fibroblast growth factor (bFGF) (UniProt P09038); experiment: Plate coated with RCP-1, bFGF solutions 37 C for 24 h, bound bFGF detected with a bFGF ELISA kit (absorbance 450 nm)

Measured: binding

RCP-1 (polypeptide consisting of the amino acid sequence represented by SEQ ID No: 16) (from UniProt P04004 20-392)
binds: all assays above
